Laboratory results: article PMC7819943, “Rice protein-binding microarrays: a tool to detect cis-acting elements near promoter regions in rice”
The other results are listed elsewhere or left out.

Biological target: T1, OsSMF1 (Oryza sativa, UniProt Q6ZLB0 1-436)
T1 sequence: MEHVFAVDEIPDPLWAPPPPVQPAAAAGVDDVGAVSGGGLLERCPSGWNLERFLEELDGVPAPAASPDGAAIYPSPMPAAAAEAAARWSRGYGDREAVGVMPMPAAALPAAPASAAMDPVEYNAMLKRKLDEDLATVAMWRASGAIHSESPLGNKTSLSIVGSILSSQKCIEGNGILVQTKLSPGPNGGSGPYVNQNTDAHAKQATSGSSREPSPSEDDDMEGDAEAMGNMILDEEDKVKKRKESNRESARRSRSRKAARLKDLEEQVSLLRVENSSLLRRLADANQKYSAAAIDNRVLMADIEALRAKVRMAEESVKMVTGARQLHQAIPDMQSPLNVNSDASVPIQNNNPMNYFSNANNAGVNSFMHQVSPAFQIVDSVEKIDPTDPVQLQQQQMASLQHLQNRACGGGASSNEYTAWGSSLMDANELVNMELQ
Assay: protein-binding microarray (RPBM); PBS, 2% BSA, 51.3 ng/ul salmon testes DNA, 50 uM zinc acetate, 200 nM TF, 25 C, 1 h; high values mean tight binding
Details: protein: recombinant; tags: N-terminal polyhistidine and DsRed monomer fusion (pET32a); chain copies: 2; label: CyDye5-dUTP incorporated in the synthesized complementary strand; 3' TTTTT single-stranded linker to array surface; dsDNA, one strand shown
Method in brief: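 For the binding signal, per-feature fluorescence intensity was read in arbitrary units on an Axon 4000B scanner. Before scanning, a 2% BSA-blocked custom Agilent array made double-stranded with Cy5-dUTP was washed after 1 h at 25 °C with 200 nM protein and 50 µM zinc acetate. The proteins were Ni–NTA-purified transcription factors with N-terminal polyhistidine and DsRed fusions, expressed in E. coli BL21-CodonPlus.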

**Q.** How did the binding signal turn out when “TCCATTTTGACCGAAAATAATAAAATAATGAGAAGAGGGTCGGAGTCACCTAGTGCAG” was run?
**A.** 34100 fluorescence intensity (a.u.)

**Q.** For “CTACGACCTAGGAACAAGTAGTCCACGTATACTTCGCTGGCGGAGTCACCTAGTGCAG”, which binding signal is on record?
**A.** 5860 fluorescence intensity (a.u.)

**Q.** How did the binding signal turn out when “GCACCTACAATTCATTGACTAGGATTGTGCCAAGCCTGGCCGGAGTCACCTAGTGCAG” was run?
**A.** 3350 fluorescence intensity (a.u.)

**Q.** With “CCCTGTGCAAGAGATAATAAGGTTACGTGGAGACCACTTGCGGAGTCACCTAGTGCAG” as the sequence, how does the binding signal read?
**A.** 6390 fluorescence intensity (a.u.)

**Q.** With “TTCACAGGTTGAGCCATCCAACTGCGTGCTTGCCAAGAACCGGAGTCACCTAGTGCAG” as the sequence, how does the binding signal read?
**A.** 3190 fluorescence intensity (a.u.)

**Q.** For “TCCCCTCCCCACCATTGCCGCCGCGCCGCGCCACGCCACGCGGAGTCACCTAGTGCAG”, which binding signal is on record?
**A.** 3960 fluorescence intensity (a.u.)

**Q.** With “GCAGTATATGTGTGTGTGCTTTCTTTTGGGATAGAGTCTGCGGAGTCACCTAGTGCAG” as the sequence, how does the binding signal read?
**A.** 3460 fluorescence intensity (a.u.)

**Q.** Which binding signal does the source give for “GACTGCGAATCTGCAACTAGATAAACAAAGGAAGAACATGCGGAGTCACCTAGTGCAG” here?
**A.** 21400 fluorescence intensity (a.u.)

**Q.** For “TCAGTCATGTTATGAATTCTTGACGGTGAACACCAGCTGGCGGAGTCACCTAGTGCAG”, which binding signal is on record?
**A.** 3140 fluorescence intensity (a.u.)

**Q.** For “GCCTCACCCTCACCGCCACCCCGCCGCCGCCGATCTACACCGGAGTCACCTAGTGCAG”, which binding signal is on record?
**A.** 3500 fluorescence intensity (a.u.)

**Q.** “TTATAAATTAAATTTTATGTAATGAAAATAATATCATTGGCGGAGTCACCTAGTGCAG” was tested. Which binding signal did it give?
**A.** 3900 fluorescence intensity (a.u.)

**Q.** For “ACACCACGCTGACATGTCAACGTGTTGTGCCACGTTAGTTCGGAGTCACCTAGTGCAG”, which binding signal is on record?
**A.** 18400 fluorescence intensity (a.u.)

**Q.** For “ATGTATTGCATAACTGTGTTGACTATTGTTGACTTGTGTACGGAGTCACCTAGTGCAG”, which binding signal is on record?
**A.** 3200 fluorescence intensity (a.u.)

**Q.** With “AAACATCAATTGTATTATCCTTGAAAAGAAGGCACATCACCGGAGTCACCTAGTGCAG” as the sequence, how does the binding signal read?
**A.** 44800 fluorescence intensity (a.u.)

**Q.** With “GACCGGGCTTCACAATTTAGGGGCCCGAACCTATATAAAACGGAGTCACCTAGTGCAG” as the sequence, how does the binding signal read?
**A.** 38600 fluorescence intensity (a.u.)

**Q.** Which binding signal does the source give for “TCCTATTACCATCTCAGGCCTCGTTGACGTAACAGGGCCGCGGAGTCACCTAGTGCAG” here?
**A.** 4000 fluorescence intensity (a.u.)

**Q.** How did the binding signal turn out when “TCTCCCTGCCACCGACGTCACCGCCCGCCATCGACGCCTCCGGAGTCACCTAGTGCAG” was run?
**A.** 6820 fluorescence intensity (a.u.)

**Q.** How did the binding signal turn out when “TCTAGGCCGGCCATTGGCGGAGGAGAGGGAGGCCGGCACGCGGAGTCACCTAGTGCAG” was run?
**A.** 20700 fluorescence intensity (a.u.)

**Q.** How did the binding signal turn out when “CCACGCTGAGTCAGCTGCCACGTCAAACAAAACTGGAGTCCGGAGTCACCTAGTGCAG” was run?
**A.** 21600 fluorescence intensity (a.u.)

**Q.** With “GCCCTGCTTGTCAGCGGCTTGAGGGAGGAAAGGGAGGTGGCGGAGTCACCTAGTGCAG” as the sequence, how does the binding signal read?
**A.** 3710 fluorescence intensity (a.u.)

**Q.** How did the binding signal turn out when “CCTCAGCCCACATCACCGGAGAGACCCCGTCGGCTCGCCGCGGAGTCACCTAGTGCAG” was run?
**A.** 4710 fluorescence intensity (a.u.)

**Q.** With “GTGCTCCACTCTAAGTCGCCGGAGCTCCGCGTCCTGCCCGCGGAGTCACCTAGTGCAG” as the sequence, how does the binding signal read?
**A.** 3790 fluorescence intensity (a.u.)

**Q.** Which binding signal does the source give for “AACGGCCGTTGAACTGACGTGGACTGGGCCCCACATTCCGCGGAGTCACCTAGTGCAG” here?
**A.** 8830 fluorescence intensity (a.u.)
